In US6642353B1, “Peptide ligands for the erythropoietin receptor” (Chugai Seiyaku Kabushiki Kaisha, priority 2000, dated 2003):

Key:
[1] = target: extracellular domain of the receptor for interleukin-6 (IL-6R); assay: magnetic bead phage ELISA, control
[2] = target: extracellular domain of the receptor for tumor necrosis factor (TNFR); assay: magnetic bead phage ELISA, control

For DFDVCRRGWVGHCKDWLSDEYASNPSYPVPHSYYLNPP (peptide, not shown: large carriers) [ERB1 phage clone], the binding [1] was “no binding” and the binding [2] was “no binding”.

These are yes or no findings as the source states them, for the method shown.
